Assay results taken from PMC7720568.
No constants are given. Whether binding was seen depends on the method and setting. For some assays here: In cells and extracts the contact can be indirect. Some binding calls cover weakened binding; strength is not graded here. For some assays here: Sequences can lack the tags named with a protein.

The chains behind the UniProt entries cited, without tags or fusion partners. Residues count along the entry.
UniProt P28074, residues 60-263: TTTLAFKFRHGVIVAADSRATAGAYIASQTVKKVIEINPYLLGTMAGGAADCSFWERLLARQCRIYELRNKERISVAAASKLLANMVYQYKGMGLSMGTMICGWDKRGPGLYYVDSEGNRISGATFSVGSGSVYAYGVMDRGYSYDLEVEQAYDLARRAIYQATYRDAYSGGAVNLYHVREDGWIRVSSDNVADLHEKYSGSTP

Tests used:
[1] = target: PSMB5 (human (endogenous in HepG2)) (UniProt P28074); assay: co-IP; IP with anti-PSMB5 from lysates of RRM2-/- HepG2 cells reconstituted with RRM2^WT, RRM2^T33A or RRM2^T33E; immunoblot with anti-RRM2 and anti-GSS
[2] = target: T1, Glutathione synthetase (human (endogenous in HepG2)) (UniProt P48637); assay: proximity ligation; Duolink PLA in fixed HepG2 cells expressing RRM2^WT, RRM2^T33A or RRM2^T33E; anti-Myc and anti-GSS primary antibodies
T1 sequence: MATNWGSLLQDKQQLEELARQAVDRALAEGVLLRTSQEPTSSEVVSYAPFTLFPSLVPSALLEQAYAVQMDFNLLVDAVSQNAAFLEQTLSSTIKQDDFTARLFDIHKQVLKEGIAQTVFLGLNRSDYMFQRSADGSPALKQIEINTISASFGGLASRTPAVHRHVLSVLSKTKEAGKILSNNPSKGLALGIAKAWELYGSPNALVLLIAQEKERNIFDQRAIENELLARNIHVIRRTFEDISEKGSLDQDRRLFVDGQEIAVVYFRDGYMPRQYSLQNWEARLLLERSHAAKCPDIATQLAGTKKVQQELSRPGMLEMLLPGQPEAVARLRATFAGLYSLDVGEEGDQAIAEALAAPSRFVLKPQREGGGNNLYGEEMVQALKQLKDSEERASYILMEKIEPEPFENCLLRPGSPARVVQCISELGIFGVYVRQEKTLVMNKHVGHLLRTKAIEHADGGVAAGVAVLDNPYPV

[3] = target: T1, Glutathione synthetase (human (endogenous in HepG2)); assay: co-IP; reciprocal IP of RRM2 and GSS from lysates of RRM2-/- HepG2 cells reconstituted with RRM2^WT, RRM2^T33A or RRM2^T33E; antibodies at 4 °C overnight, protein A/G magnetic beads, immunoblot
[4] = target: PSMB5 (human (endogenous in HepG2)) (UniProt P28074); assay: proteasome isolation with affinity beads (kit); proteasomes isolated with the Sigma proteasome isolation kit (#539176) from HepG2 cells with or without erastin (10 μM, 24 h) in the presence of MG132 (8 μM, 24 h); affinity and control beads in parallel; immunoblot
[5] = target: T1, Glutathione synthetase (human (endogenous in HepG2)); assay: co-IP; reciprocal IP of endogenous RRM2 and GSS from HepG2 lysates, cells with or without NU6102 (20 μM, 24 h) and SB203580 (10 μM, 24 h); protein A/G magnetic beads, immunoblot

Binder	binding [1]	binding [2]	binding [3]	binding [4]	binding [5]
Ribonucleotide reductase regulatory subunit M2, wild type, Myc-tagged (protein, UniProt P31350 1-389) MLSLRVPLAPITDPQQLQLSPLKGLSLVDKENTPPALSGTRVLASKTARRIFQEPTEPKTKAAAPGVEDEPLLRENPRRFVIFPIEYHDIWQMYKKAEASFWTAEEVDLSKDIQHWESLKPEERYFISHVLAFFAASDGIVNENLVERFSQEVQITEARCFYGFQIAMENIHSEMYSLLIDTYIKDPKEREFLFNAIETMPCVKKKADWALRWIGDKEATYGERVVAFAAVEGIFFSGSFASIFWLKKRGLMPGLTFSNELISRDEGLHCDFACLMFKHLVHKPSEERVREIIINAVRIEQEFLTEALPVKLIGMNCTLMKQYIEFVADRLMLELGFSKVFRVENPFDFMENISLEGKTNFFEKRVGEYQRMGVMSSPTENSFTLDADF	binds	binds	binds	–	–
Glutathione synthetase (enzyme, UniProt P48637 1-474) MATNWGSLLQDKQQLEELARQAVDRALAEGVLLRTSQEPTSSEVVSYAPFTLFPSLVPSALLEQAYAVQMDFNLLVDAVSQNAAFLEQTLSSTIKQDDFTARLFDIHKQVLKEGIAQTVFLGLNRSDYMFQRSADGSPALKQIEINTISASFGGLASRTPAVHRHVLSVLSKTKEAGKILSNNPSKGLALGIAKAWELYGSPNALVLLIAQEKERNIFDQRAIENELLARNIHVIRRTFEDISEKGSLDQDRRLFVDGQEIAVVYFRDGYMPRQYSLQNWEARLLLERSHAAKCPDIATQLAGTKKVQQELSRPGMLEMLLPGQPEAVARLRATFAGLYSLDVGEEGDQAIAEALAAPSRFVLKPQREGGGNNLYGEEMVQALKQLKDSEERASYILMEKIEPEPFENCLLRPGSPARVVQCISELGIFGVYVRQEKTLVMNKHVGHLLRTKAIEHADGGVAAGVAVLDNPYPV	binds	–	–	binds	–
Ribonucleotide reductase regulatory subunit M2, endogenous (protein, UniProt P31350 1-389) MLSLRVPLAPITDPQQLQLSPLKGLSLVDKENTPPALSGTRVLASKTARRIFQEPTEPKTKAAAPGVEDEPLLRENPRRFVIFPIEYHDIWQMYKKAEASFWTAEEVDLSKDIQHWESLKPEERYFISHVLAFFAASDGIVNENLVERFSQEVQITEARCFYGFQIAMENIHSEMYSLLIDTYIKDPKEREFLFNAIETMPCVKKKADWALRWIGDKEATYGERVVAFAAVEGIFFSGSFASIFWLKKRGLMPGLTFSNELISRDEGLHCDFACLMFKHLVHKPSEERVREIIINAVRIEQEFLTEALPVKLIGMNCTLMKQYIEFVADRLMLELGFSKVFRVENPFDFMENISLEGKTNFFEKRVGEYQRMGVMSSPTENSFTLDADF	–	–	–	binds	binds
Ribonucleotide reductase regulatory subunit M2, T33A mutant, Myc-tagged (protein, UniProt P31350 1-389) MLSLRVPLAPITDPQQLQLSPLKGLSLVDKENAPPALSGTRVLASKTARRIFQEPTEPKTKAAAPGVEDEPLLRENPRRFVIFPIEYHDIWQMYKKAEASFWTAEEVDLSKDIQHWESLKPEERYFISHVLAFFAASDGIVNENLVERFSQEVQITEARCFYGFQIAMENIHSEMYSLLIDTYIKDPKEREFLFNAIETMPCVKKKADWALRWIGDKEATYGERVVAFAAVEGIFFSGSFASIFWLKKRGLMPGLTFSNELISRDEGLHCDFACLMFKHLVHKPSEERVREIIINAVRIEQEFLTEALPVKLIGMNCTLMKQYIEFVADRLMLELGFSKVFRVENPFDFMENISLEGKTNFFEKRVGEYQRMGVMSSPTENSFTLDADF	binds	binds	binds	–	–
Ribonucleotide reductase regulatory subunit M2, T33E mutant, Myc-tagged (protein, UniProt P31350 1-389) MLSLRVPLAPITDPQQLQLSPLKGLSLVDKENEPPALSGTRVLASKTARRIFQEPTEPKTKAAAPGVEDEPLLRENPRRFVIFPIEYHDIWQMYKKAEASFWTAEEVDLSKDIQHWESLKPEERYFISHVLAFFAASDGIVNENLVERFSQEVQITEARCFYGFQIAMENIHSEMYSLLIDTYIKDPKEREFLFNAIETMPCVKKKADWALRWIGDKEATYGERVVAFAAVEGIFFSGSFASIFWLKKRGLMPGLTFSNELISRDEGLHCDFACLMFKHLVHKPSEERVREIIINAVRIEQEFLTEALPVKLIGMNCTLMKQYIEFVADRLMLELGFSKVFRVENPFDFMENISLEGKTNFFEKRVGEYQRMGVMSSPTENSFTLDADF	binds	–	–	–	–
